Some entries share one result that the patent states for a list of compounds. Some ranges recur; such a range may be that of the whole group of compounds.
System: Tomato Plants cv. H9144
Assay: Protection of pesticide (Marathon, imidacloprid) injury and enhancement of recovery
Format: in vivo
Settings: 200 mg/L in 1% ethanol sprayed three weeks after pesticide treatment
Source text: Marathon with active […] of imidacloprid (available from Olympic Chemical Co., PO Box K, Mainland, Pa.) is a pesticide used for controlling whitefly in plants. This is a systemic pesticide and is introduced to the plant via soil application. As the pesticide accumulates in the foliage the insects feeding on the plants are killed. Sometimes as this chemical accumulates in the plant it can result in phytotoxicity to the plant. To test this, tomato plants cv. […] (cultivar of Heinz Co.) were grown for two (2) months in 20 liter pots in a greenhouse. […] Many leaves lost chlorophyll and plants had poor shoot growth. Three weeks after the treatment of pesticide, […]18:1 or LPI (200 mg/L each) solution containing 1% ethanol were sprayed to the point that solution started to run off the leaves. Control plants were sprayed with distilled water containing 1% ethanol. The LPE solution was prepared by wetting 200 mg of LPE in 1 ml ethanol and then adding distilled water to make 1 liter of total volume. The LPE solution was then sonicated 1 minute before spraying.

Row | Substance | time to resumed shoot growth after spraying [days]
1 | lysophosphatidylethanolamine [LPE] | 4 to 5
2 | lysophosphatidylinositol [LPI] | 4 to 5
